Record: PubChem BioAssay AID652259 (Drosophila RNAi Screening Center, 2013)

Aim: 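Identify new Wingless signalling regulators in fly cells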 (primary screen)
Cells: Drosophila clone 8 imaginal disc epithelial cells
Knock-down reagent: long dsRNA against Drosophila genes
Conditions: pathway stimulated by co-transfected Wingless expression plasmid
Detection: 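Dual luciferase reads per well after Wingless plasmid stimulation: reporter firefly light and Renilla control light; activity is firefly divided by Renilla, a ratio not deposited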
Reading the numbers: firefly reporter light: higher = more Wg reporter light, before normalisation; Renilla control light: higher = more transfected or surviving cells
Active means: 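a knock-down is a candidate when at least two out of four statistical tests show it departing from its plate mean; one test alone signals a weak candidate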
Meaning of the calls: active = candidate regulator (raises or lowers reporter); inactive = not a candidate
In all, the deposit lists about 22,000 reagents; this is an unselected part of those that have a named target and a result. Of all reagents, 233 (1.1%) were called active. 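Light values are raw, unnormalised plate reads; the ratio scores behind the reporter calls were not deposited.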 A plus sign joins genes that one reagent is predicted to hit. No sequences are given here. The record does not give: the amount of reagent, the time to read-out, the dose of the treatment.

The first 2 records, to show the layout:
Target gene	dsRNA	reporter change call, replicate 1	firefly reporter light, replicate 1	firefly reporter light, replicate 2	Renilla control light, replicate 1	Renilla control light, replicate 2	Outcome
nAChRalpha2	DRSC17009		1828	5410	1003	2048	inactive
Invadolysin	DRSC15527		13002		4421		inactive

The list itself, from the first entry:
Target gene	dsRNA	reporter change call, replicate 1	firefly reporter light, replicate 1	firefly reporter light, replicate 2	Renilla control light, replicate 1	Renilla control light, replicate 2	Outcome
nAChRalpha2	DRSC17009		1828	5410	1003	2048	inactive
Invadolysin	DRSC15527		13002		4421		inactive
mRpS26	DRSC10823		8391		2368		inactive
CG8745	DRSC11033	Wg reporter activity lowered	4853		1300		inactive
CG8745	DRSC11034		9393		4061		inactive
CG8745	DRSC22741		5.40e5	5.54e5	1.86e5	1.31e5	inactive
CG6659	DRSC20003		2316	7610	845	3014	inactive
stops	DRSC15095		6020		2098		inactive
stops	DRSC15096		7797		3466		inactive
stops	DRSC15097		7051		3078		inactive
Cyp318a1	DRSC19784		21850		10380		inactive
Rad23	DRSC17167		2019	4705	784	1712	inactive
zye	DRSC11784		11435		4806		inactive
AstA-R2	DRSC14171		7398		2280		inactive
Pdh	DRSC11249		2816		1465		inactive
CG17738	DRSC15257		20234		4437		inactive
CG3280 (retired record)	DRSC10356		6980		3078		inactive
CG7368	DRSC10826		11141		4339		inactive
CG7368	DRSC22821	Wg reporter activity raised	7.59e5	7.43e5	1.71e5	2.03e5	inactive
Adgf-A	DRSC10566		4880		1657		inactive
Vm26Ac	DRSC02329		2804	7284	1281	2905	inactive
Tep3	DRSC03452		2728	9520	290	3145	inactive
ea	DRSC16939		15893		3636		inactive
Lipt1 + CG42837	DRSC07183		14476		3846		inactive
CAH14	DRSC04234		4389	10856	1488	4064	inactive
CAH14	DRSC22160		4.70e5	4.39e5	1.78e5	2.16e5	inactive
mei-41	DRSC20350		9272		4877		inactive
CG8746	DRSC07257		2536	7504	819	3108	inactive
CG32074	DRSC22246		6.14e5	6.25e5	2.35e5	2.95e5	inactive
4E-T	DRSC17201		2553	6000	1402	1937	inactive
4E-T	DRSC17208		16935		13009		inactive
Srg3	DRSC08984		4934		858		inactive
Srg3	DRSC10178		6168		3282		inactive
CG2444	DRSC19846		17469		8677		inactive
HP1Lcsd	DRSC03999		15353		9568		inactive
CG9458	DRSC16495		15719		4133		inactive
Cat	DRSC11110		4800		2035		inactive
CG31715	DRSC21607		5.31e5	6.10e5	2.06e5	1.57e5	inactive
CG1924	DRSC19823		23568		11344		inactive
CG11313	DRSC14295		6721		3075		inactive
mthl8	DRSC08211		16422		3820		inactive
mthl8	DRSC08311		6112		3008		inactive
CG11378	DRSC18627		24716		11979		inactive
CG7191	DRSC03022		3842	6160	1321	2593	inactive
CG1409	DRSC17910		25061		11004		inactive
ND-MWFE	DRSC06364		11335		4288		inactive
Mst84Dd	DRSC12600		17456		4626		inactive
sqh	DRSC18837		3021	7083	881	1652	inactive
GstO3	DRSC10710		1185	5948	925	2517	inactive
